According to the supplement of paper PMC10849652:
Some of the results follow.

Chains of the proteins cited; added tags and fusions are not shown. Lines headed by an entry give the natural chain unless they say otherwise; changes in a name come on top.
UniProt O76080: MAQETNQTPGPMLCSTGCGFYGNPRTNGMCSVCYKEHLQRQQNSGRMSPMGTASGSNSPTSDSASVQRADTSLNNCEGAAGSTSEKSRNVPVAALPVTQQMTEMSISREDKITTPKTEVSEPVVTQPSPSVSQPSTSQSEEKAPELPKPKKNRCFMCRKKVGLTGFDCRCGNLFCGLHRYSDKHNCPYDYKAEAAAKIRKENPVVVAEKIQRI
UniProt P17028: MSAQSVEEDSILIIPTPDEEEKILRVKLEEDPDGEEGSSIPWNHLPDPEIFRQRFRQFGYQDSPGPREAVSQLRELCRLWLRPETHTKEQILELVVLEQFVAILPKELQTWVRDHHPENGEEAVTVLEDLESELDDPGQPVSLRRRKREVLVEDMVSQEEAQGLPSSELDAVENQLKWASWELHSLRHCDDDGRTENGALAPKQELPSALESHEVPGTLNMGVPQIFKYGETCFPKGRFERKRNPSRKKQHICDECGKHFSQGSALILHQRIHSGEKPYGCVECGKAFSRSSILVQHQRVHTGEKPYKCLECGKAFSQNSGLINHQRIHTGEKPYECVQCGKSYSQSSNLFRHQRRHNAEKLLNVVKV
UniProt O95159: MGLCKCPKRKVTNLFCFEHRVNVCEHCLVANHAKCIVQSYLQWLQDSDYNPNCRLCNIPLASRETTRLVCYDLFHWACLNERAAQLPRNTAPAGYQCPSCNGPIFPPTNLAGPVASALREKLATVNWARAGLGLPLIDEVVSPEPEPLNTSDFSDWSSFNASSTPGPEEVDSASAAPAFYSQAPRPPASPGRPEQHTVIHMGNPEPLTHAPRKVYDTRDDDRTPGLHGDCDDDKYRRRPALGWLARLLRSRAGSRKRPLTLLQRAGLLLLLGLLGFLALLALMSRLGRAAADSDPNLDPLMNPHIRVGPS
UniProt Q14202: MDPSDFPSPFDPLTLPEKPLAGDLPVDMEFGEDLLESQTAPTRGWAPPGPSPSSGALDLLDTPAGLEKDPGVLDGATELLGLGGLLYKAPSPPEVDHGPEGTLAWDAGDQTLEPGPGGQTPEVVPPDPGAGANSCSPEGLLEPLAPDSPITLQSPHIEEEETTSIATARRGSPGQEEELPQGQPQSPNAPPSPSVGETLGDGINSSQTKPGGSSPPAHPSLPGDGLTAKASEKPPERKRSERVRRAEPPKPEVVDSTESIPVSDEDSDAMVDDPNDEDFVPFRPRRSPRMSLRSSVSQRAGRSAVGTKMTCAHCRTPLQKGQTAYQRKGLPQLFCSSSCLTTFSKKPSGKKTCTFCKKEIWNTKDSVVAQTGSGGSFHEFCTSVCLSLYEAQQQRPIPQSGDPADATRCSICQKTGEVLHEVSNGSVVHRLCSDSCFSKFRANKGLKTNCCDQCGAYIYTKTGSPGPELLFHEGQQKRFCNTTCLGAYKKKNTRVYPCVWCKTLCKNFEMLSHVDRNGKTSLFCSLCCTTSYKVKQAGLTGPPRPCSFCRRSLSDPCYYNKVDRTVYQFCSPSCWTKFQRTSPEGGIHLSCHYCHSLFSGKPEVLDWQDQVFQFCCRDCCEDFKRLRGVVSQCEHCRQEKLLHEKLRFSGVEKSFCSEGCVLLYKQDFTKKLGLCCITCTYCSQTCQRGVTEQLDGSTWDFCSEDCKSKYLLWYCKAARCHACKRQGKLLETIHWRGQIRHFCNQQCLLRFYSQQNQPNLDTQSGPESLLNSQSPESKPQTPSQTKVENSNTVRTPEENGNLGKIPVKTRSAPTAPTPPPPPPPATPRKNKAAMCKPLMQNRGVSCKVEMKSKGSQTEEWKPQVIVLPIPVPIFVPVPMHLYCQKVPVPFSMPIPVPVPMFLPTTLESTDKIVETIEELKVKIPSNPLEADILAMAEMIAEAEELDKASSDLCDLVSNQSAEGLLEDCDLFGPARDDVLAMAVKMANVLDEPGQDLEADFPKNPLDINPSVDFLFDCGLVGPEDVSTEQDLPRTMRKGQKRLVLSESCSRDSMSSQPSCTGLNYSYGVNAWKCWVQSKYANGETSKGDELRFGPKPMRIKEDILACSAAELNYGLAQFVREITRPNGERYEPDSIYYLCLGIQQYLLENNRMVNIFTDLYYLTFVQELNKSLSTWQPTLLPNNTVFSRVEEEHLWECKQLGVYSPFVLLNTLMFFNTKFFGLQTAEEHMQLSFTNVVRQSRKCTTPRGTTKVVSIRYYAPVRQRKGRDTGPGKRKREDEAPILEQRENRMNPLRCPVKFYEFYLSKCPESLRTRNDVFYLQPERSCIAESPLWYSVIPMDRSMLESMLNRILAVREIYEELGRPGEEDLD
UniProt Q96NC0: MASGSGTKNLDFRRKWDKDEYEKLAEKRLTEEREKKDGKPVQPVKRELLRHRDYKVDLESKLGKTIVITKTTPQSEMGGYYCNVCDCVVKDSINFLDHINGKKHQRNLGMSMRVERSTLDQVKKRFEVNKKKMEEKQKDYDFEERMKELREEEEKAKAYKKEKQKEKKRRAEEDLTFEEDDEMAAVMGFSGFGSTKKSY
UniProt Q9BSR8: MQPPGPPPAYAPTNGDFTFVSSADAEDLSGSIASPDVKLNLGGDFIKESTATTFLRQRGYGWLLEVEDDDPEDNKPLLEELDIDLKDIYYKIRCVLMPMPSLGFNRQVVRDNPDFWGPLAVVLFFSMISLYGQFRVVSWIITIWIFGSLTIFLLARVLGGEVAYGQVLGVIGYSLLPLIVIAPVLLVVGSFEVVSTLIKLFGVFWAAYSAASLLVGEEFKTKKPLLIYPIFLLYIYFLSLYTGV
UniProt Q96JP5: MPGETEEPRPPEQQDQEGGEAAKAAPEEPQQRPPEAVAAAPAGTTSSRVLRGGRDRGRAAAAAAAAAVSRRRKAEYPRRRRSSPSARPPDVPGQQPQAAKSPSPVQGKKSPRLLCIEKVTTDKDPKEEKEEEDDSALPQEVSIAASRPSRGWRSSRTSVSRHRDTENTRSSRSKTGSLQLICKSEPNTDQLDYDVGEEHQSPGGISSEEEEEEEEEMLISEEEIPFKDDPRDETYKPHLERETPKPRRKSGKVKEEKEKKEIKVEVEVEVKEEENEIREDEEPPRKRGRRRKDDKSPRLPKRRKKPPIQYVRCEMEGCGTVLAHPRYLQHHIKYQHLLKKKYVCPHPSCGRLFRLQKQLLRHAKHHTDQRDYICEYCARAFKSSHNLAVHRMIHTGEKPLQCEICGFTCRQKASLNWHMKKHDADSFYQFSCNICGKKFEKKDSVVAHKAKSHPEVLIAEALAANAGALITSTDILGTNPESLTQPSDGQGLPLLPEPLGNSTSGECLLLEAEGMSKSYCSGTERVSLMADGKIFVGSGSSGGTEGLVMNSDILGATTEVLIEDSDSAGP
UniProt Q8WV99: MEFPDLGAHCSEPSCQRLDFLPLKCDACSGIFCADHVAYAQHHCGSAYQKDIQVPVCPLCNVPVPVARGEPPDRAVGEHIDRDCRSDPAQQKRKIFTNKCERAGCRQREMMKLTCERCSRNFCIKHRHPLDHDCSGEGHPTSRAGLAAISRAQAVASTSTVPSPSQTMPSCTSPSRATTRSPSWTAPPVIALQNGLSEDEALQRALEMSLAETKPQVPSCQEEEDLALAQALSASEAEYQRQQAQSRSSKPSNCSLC
UniProt Q8IUH5: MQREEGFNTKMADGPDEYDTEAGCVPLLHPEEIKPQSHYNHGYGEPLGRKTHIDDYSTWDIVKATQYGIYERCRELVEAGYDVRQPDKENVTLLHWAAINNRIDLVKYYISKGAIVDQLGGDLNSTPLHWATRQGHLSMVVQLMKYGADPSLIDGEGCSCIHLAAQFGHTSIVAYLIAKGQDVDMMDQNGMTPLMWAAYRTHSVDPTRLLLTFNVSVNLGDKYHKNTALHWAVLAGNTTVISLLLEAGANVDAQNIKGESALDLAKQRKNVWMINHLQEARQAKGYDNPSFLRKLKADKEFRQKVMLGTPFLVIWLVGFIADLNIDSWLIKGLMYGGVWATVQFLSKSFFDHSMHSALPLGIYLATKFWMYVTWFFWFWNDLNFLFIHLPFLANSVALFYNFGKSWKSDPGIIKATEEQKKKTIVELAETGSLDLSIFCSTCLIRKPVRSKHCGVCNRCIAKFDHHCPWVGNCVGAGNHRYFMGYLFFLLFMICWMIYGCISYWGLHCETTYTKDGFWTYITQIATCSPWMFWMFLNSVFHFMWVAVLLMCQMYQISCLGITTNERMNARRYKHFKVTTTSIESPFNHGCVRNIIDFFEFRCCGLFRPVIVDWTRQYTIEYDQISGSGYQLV
UniProt P31946: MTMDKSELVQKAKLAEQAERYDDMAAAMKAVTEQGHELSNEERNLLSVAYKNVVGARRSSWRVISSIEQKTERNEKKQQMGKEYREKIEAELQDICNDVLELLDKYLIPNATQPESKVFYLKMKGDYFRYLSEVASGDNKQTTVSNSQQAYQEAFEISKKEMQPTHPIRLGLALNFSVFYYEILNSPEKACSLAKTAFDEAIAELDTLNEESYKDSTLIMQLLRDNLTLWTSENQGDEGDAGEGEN
UniProt O14980, whole entry, looked up: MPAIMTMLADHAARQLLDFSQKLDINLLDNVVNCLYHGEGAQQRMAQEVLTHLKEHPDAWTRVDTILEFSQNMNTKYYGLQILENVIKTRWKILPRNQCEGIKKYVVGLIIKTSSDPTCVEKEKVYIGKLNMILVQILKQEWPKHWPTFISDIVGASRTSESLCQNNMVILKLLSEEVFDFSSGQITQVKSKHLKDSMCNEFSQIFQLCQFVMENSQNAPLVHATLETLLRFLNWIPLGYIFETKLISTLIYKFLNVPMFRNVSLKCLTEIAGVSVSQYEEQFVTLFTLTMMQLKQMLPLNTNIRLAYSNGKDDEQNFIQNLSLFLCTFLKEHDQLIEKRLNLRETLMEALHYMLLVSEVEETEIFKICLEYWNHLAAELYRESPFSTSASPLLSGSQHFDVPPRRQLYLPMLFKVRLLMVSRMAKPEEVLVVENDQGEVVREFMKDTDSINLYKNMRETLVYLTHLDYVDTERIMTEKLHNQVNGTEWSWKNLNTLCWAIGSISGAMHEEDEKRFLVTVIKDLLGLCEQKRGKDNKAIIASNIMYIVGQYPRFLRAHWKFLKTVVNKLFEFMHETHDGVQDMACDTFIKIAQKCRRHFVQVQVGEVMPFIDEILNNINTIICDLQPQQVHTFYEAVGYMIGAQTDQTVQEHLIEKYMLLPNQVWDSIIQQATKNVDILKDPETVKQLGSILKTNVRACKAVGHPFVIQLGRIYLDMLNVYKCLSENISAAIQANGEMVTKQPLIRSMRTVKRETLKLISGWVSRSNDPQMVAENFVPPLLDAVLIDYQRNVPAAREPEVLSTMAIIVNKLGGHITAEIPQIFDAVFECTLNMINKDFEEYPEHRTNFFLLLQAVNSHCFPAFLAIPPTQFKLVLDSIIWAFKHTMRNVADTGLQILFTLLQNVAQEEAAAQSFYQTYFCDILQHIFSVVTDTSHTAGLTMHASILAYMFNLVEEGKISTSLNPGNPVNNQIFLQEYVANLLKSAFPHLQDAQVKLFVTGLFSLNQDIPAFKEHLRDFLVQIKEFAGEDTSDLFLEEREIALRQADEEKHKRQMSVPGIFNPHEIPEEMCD
UniProt P52747: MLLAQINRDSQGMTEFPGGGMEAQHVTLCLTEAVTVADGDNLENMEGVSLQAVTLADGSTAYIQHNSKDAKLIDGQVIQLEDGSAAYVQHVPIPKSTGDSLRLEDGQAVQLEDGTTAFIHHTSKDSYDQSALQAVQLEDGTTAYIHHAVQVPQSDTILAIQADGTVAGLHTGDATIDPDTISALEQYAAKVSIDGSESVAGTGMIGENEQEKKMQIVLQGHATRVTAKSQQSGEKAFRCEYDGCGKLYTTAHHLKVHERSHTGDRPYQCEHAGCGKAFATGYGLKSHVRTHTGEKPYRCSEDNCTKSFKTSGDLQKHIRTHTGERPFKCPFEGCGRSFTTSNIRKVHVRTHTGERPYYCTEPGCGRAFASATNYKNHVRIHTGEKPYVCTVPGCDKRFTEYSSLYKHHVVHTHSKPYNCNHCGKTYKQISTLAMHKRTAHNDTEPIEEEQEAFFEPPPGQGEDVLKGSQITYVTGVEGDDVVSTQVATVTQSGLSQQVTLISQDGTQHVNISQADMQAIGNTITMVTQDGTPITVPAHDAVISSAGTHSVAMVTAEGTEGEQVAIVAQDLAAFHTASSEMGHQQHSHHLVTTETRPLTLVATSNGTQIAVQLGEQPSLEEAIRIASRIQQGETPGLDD
UniProt P27348: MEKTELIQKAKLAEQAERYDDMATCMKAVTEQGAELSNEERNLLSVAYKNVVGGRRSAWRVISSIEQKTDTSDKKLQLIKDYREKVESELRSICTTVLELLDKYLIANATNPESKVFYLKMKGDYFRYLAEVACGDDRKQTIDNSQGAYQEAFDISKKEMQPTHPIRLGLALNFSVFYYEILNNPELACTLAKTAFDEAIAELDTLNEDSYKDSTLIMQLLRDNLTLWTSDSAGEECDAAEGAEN
UniProt Q9NRH1: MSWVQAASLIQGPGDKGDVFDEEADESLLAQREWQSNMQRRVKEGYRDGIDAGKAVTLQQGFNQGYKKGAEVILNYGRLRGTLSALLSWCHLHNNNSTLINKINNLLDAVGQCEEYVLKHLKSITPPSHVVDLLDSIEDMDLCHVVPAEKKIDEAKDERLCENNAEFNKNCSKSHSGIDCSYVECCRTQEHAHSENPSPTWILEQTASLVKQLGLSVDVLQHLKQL

Each target was assayed with CCCS(=O)(=O)Nc1ccc(F)c(C(=O)c2c[nH]c3ncc(Cl)cc23)c1F (assay: log2 fold change, soluble protein after heating vs DMSO (PISA); higher = thermal stabilisation; K562 cells, 10 uM, 30 min; active = over 0.2 and 3.5 SD of the protein, either way, in both replicates (recomputed)).
Summary of the method: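 K562 cells (2×10^6 cells/mL) were treated with 10 μM compound for 30 min, and aliquots were heated for 3 min over 48°C-58°C. Pooled aliquots were extracted in PBS with 0.5% NP-40 at 4°C, and the supernatant after 21,000xg for 90 min was measured by TMTpro 16plex LC-MS/MS with channel sums equalised. Reported thermal stability, relative to control samples and from duplicates, is a log2 fold change.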

log2 fold change, inactive:
YJU2 (UniProt Q9BW85) 0.013, ZFAND5 (UniProt O76080) -0.058, ZNF24 (UniProt P17028) -0.057, ZFPL1 (UniProt O95159) 0.006, ZMYM3 (UniProt Q14202) 0.016, XRCC5 (UniProt P13010) 0.189, ZMAT2 (UniProt Q96NC0) -0.008, YARS (UniProt P54577) 0.082, YIPF4 (UniProt Q9BSR8) -0.01, ZFP91 (UniProt Q96JP5) -0.041, XRCC6 (UniProt P12956) 0.138, YY1 (UniProt P25490) 0.037, ZFYVE9 (UniProt O95405) 0.083, XPNPEP3 (UniProt Q9NQH7) -0.012, ZFAND2B (UniProt Q8WV99) 0.041, ZDHHC17 (UniProt Q8IUH5) -0.016, YWHAB (UniProt P31946) 0.031, XPO1 (UniProt O14980) 0.101, ZNF143 (UniProt P52747) 0.063, YBX1 (UniProt P67809) -0.137, ZER1 (UniProt Q7Z7L7) -0.001, ZDHHC14 (UniProt Q8IZN3) -0.024, YWHAQ (UniProt P27348) 0.233, YAE1 (UniProt Q9NRH1) -0.037
